According to PubChem BioAssay AID485314 (National Center for Advancing Translational Sciences (NCATS), 2010):
The whole screen tested about 340,000 compounds, of which about 4,500 (1.3%) were called active. Inconclusive means that the source gave no clear call. Such entries were picked first, then a sample of the others. Calls come from the whole dose curve; as a rule, active = well fitted inhibition curve with a large enough effect; inconclusive = small, poorly fitted or top-dose-only effect, or another doubt; inactive = no such curve, though single readings can be large or run the other way. A potency beside an inconclusive call is a rough fit, not a confirmed value.

biological target: DNA polymerase beta (Homo sapiens) (UniProt P06746); test: qHTS Assay for Inhibitors of DNA Polymerase Beta; details: Pol beta primer extension/strand displacement, fluorescence kinetic; series mostly up to 114 µM
Method in brief: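 Pol beta (10 nM) was preincubated with compound for 15 min at room temperature. The reaction was then started with 50 nM substrate and read immediately and after a further 10 min at room temperature.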
Potency is the fitted concentration of half-maximal effect.

Potency, active:
CCOc1ccc(-n2c(O)c(/C=N/Nc3nnc(C)c(=O)[nH]3)c3ccccc3c2=O)cc1 56.2 µM
CCCCCc1c2c(cc(O)c1C(=O)O)OC(=O)c1c(cc(OC)cc1C(=O)CCCC)O2 50.1 µM

Potency, inactive:
COc1ccc(Cc2nc3ccc(S(=O)(=O)N4CCOCC4)cc3[nH]2)cc1
Cc1ccc2c(c1)N(CC(=O)NCc1ccccc1Br)C(=O)c1cccnc1O2
CN(C(=O)C1=CC(c2ccc3c(c2)OCO3)=NS(=O)(=O)N1C)c1ccccc1
Cn1nc(C(=O)NCCCN2CCCCC2)c2c1-c1ccccc1S(=O)(=O)C2
Cc1ccc(N/N=C(\C#N)C(N)=S)cc1C
CCOc1ccc(Oc2nc(NC)nc(N3CCOCC3)n2)nn1
COc1ccc(OC)c(NC(=O)c2c(NCc3cccs3)sc3c2CCCC3)c1
Cc1ccc(NC(=O)C2CCN(c3nc4ccccc4[nH]3)CC2)c(C)c1

Potency, inconclusive:
CC(=O)Nc1cc(C(=O)c2ccccc2)ccc1N1CCOCC1 89.1 µM [inhibitor, single point]
O=C(CNC(=O)c1ccco1)Nc1cc(Cl)ccc1N1CCOCC1 89.1 µM [inhibitor, single point]
Cc1ccc2nc(N3C(=O)C(O)=C(C(=O)c4ccco4)C3c3cccc(O)c3)sc2c1 (stereo unspecified) 89.1 µM [inhibitor, single point]
Cc1ccc(C)c(CSc2nnc(CCN)o2)c1 89.1 µM [inhibitor, single point]
O=C(NCc1ccccn1)c1nc(Cn2ccc([N+](=O)[O-])n2)no1 50.1 µM [inhibitor, partial curve, poor fit]
O=C1N=c2ccccc2=C1c1[nH]c(=S)[nH]c1O 39.8 µM [inhibitor, full curve]
Cc1cc(C)cc(Oc2nn[nH]n2)c1 1.58 µM [inhibitor, full curve]
O=C/C(=C\Nc1ccccn1)c1nc2cc(Cl)ccc2o1 10 µM [inhibitor, full curve, poor fit]
CCOc1ccc(CN2CCC(C(=O)N3CCN(c4ccccc4F)CC3)CC2)cc1OC 89.1 µM [inhibitor, single point]
Cc1ccccc1-c1nc(-c2ccc(NC(=O)c3ccc4c(c3)OCO4)cc2)no1 10 µM [inhibitor, full curve]
O=S(=O)(c1ccc(Oc2ncnc3scc(-c4ccccc4)c23)cc1)N1CCOCC1 20 µM [inhibitor, full curve, poor fit]

Sorted by heavy-atom count (rising): part of the list above
Potency, inconclusive:
CC(=O)Nc1cc(C(=O)c2ccccc2)ccc1N1CCOCC1 89.1 µM [inhibitor, single point]
Cc1ccccc1-c1nc(-c2ccc(NC(=O)c3ccc4c(c3)OCO4)cc2)no1 10 µM [inhibitor, full curve]
CCOc1ccc(CN2CCC(C(=O)N3CCN(c4ccccc4F)CC3)CC2)cc1OC 89.1 µM [inhibitor, single point]
